In paper PMC8169668, “Discovery of a cooperative mode of inhibiting RIPK1 kinase” (Cell Discovery, 2021):
No constants are given. Whether binding was seen depends on the method and setting. In cells and extracts the contact can be indirect. Some binding calls cover weakened binding; strength is not graded here.

Protein sequences, listed by entry. Tags and fused reporters are not part of them. Lines headed by an entry give the natural chain unless they say otherwise; changes in a name come on top. Residues count along the entry.
UniProt Q9Y572: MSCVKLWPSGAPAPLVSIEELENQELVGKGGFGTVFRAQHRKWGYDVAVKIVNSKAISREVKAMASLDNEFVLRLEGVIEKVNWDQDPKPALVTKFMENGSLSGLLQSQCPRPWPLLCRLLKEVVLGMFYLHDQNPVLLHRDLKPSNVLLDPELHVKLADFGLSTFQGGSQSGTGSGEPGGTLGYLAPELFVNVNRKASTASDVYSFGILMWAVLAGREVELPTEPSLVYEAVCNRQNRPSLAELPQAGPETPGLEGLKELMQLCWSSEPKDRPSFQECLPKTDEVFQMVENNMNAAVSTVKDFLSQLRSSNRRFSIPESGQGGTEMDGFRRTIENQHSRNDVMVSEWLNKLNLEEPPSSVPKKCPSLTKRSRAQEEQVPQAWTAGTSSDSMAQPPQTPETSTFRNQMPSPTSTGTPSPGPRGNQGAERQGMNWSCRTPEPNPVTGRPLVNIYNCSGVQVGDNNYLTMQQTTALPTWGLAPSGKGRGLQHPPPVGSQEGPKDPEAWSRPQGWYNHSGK
UniProt P01375, residues 77-233: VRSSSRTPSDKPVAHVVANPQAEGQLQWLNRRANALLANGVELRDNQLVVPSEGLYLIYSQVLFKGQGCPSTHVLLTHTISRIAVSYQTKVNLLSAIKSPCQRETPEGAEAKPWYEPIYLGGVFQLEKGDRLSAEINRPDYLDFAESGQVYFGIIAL
UniProt Q13546: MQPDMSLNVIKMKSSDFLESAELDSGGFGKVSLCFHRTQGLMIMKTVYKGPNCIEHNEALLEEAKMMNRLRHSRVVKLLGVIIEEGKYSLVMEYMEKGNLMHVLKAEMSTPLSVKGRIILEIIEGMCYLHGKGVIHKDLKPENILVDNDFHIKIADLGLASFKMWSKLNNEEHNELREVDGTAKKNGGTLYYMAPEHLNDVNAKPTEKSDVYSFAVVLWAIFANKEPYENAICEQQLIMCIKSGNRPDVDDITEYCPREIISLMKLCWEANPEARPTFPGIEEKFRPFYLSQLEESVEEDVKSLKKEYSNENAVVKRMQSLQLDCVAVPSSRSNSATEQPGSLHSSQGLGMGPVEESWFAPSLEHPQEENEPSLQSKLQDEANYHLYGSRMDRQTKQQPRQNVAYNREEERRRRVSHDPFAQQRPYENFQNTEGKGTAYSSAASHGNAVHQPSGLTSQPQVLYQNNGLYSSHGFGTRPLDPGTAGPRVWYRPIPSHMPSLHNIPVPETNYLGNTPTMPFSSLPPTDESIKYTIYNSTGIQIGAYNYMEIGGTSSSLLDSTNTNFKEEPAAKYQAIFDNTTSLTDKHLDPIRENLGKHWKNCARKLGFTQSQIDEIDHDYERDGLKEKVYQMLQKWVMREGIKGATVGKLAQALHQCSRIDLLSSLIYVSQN
UniProt Q60680: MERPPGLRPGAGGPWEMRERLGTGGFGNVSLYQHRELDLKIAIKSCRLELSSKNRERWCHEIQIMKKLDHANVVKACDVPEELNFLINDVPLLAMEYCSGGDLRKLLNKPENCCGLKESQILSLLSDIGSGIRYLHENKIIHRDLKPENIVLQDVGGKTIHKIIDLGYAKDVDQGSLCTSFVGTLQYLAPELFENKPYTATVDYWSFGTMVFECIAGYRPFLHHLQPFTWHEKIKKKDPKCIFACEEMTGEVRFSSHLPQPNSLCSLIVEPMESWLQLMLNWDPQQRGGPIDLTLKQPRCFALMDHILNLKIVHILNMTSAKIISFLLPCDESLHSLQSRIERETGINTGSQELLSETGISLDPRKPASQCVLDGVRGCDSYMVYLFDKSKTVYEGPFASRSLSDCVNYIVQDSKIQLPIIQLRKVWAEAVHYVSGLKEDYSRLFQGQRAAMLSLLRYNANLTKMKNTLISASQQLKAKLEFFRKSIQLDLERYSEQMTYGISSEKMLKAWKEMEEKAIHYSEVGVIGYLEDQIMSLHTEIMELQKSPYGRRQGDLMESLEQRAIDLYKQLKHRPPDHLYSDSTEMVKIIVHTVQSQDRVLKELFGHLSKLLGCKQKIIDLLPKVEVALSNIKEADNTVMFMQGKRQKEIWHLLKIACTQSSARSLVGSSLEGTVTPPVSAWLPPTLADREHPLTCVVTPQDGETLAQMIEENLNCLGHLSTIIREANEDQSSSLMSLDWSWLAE

How the values were obtained:
[1] = target: RIPK3, human (human (endogenous in Jurkat and HT29)) (UniProt Q9Y572); assay: co-IP; HT29 cells stimulated by TNFα/SM-164/zVAD.fmk, no inhibitor (Supplementary Fig. S2b); told only as 'a consistent result'; details not shown
[2] = target: RIPK3, human (human (endogenous in Jurkat and HT29)) (UniProt Q9Y572); assay: co-IP; FADD-deficient Jurkat cells, 50 ng/mL TNFα for the indicated times, no inhibitor; 0.5% Nonidet P-40 buffer; IP with anti-RIPK3 antibody; western blot
[3] = target: Flag-TNFα (UniProt P01375); assay: co-IP; L929 cells given 100 ng/mL Flag-TNFα for the indicated times, with or without 30 min pretreatment with 10 μM Nec-1s or Nec-34; lysed in 0.5% Nonidet P-40 buffer; anti-Flag antibody-conjugated agarose; western blot; only the target purified

Row | Substance | binding [1] | binding [2] | binding [3]
1 | receptor-interacting protein kinase 1 (RIPK1), human (from UniProt Q13546 1-671) | binds | binds | –
2 | IKKα/β (inhibitor of nuclear factor κ-B kinase subunit α/β), mouse (from UniProt Q60680 1-745; O88351 1-757) (complex) | – | – | binds
